# Test results reported in PubChem BioAssay AID504444 (National Center for Advancing Translational Sciences (NCATS), 2011).
# Hit rate of the full screen: of about 360,000 compounds, about 7,500 (2.1%) were called active. The inconclusive results got no clear call from the source; some entries with a clear call stand among them for comparison. Calls come from the whole dose curve; as a rule, active = well fitted inhibition curve with a large enough effect; inconclusive = small, poorly fitted or top-dose-only effect, or effect the other way; inactive = flat fitted curve, though single readings scatter. Where the call is inconclusive, the potency comes from a doubtful curve fit.
# Experiment: Nrf2 qHTS screen for inhibitors; note: nearly all actives have a fitted effect of over 60% in size
# Conditions: A549 ARE-Fluc reporter, luciferase luminescence, 18-24 h; series mostly up to 46 µM
# How it was run: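 In this cell-based qHTS, ARE-driven firefly luciferase in A549 cells reports Nrf2 activity; the luminescent signal after BugLite lysis is the measured value, with a prior CellTiter-Fluor read for cell health.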
# Potency is the fitted concentration of half-maximal effect.
row,Structure (SMILES),Potency
1,O=C1C=CC(=Nc2ccc3c(c2)Cc2cc(F)ccc2-3)O1,"inconclusive: 29.1 µM [activator, single point]"
2,COc1ccc(C(=O)Nc2nc(-c3ccc([N+](=O)[O-])cc3)c(-c3ccccc3)s2)cc1,active: 13 µM
3,Cc1ccc2[nH]c(=O)c(CN(CC3COCCO3)C(=O)Nc3ccccc3F)cc2c1 (configuration not stated),"inconclusive: 0.0052 µM [falling, full curve, poor fit]"
4,Cc1ccccc1-c1noc(-c2cc(C(C)C)[nH]n2)n1,inactive
5,CCc1csc(CCNC(=O)C2CCC(=O)N(CCOC)C2)n1 (configuration not stated),inactive
6,O=C(Nc1ccc(F)cc1)OCCN1CCN(Cc2ccccc2)CCC1=O,inactive
7,COc1ccccc1C(=O)Nc1cccc(S(=O)(=O)N2CCCC2)c1,"inconclusive: 25.9 µM [falling, partial curve, poor fit]"
8,COc1cc(OC)c(NC(=O)CN(C)S(=O)(=O)c2ccc(-c3ccc(=O)[nH]n3)s2)cc1Cl,"inconclusive: 29.1 µM [falling, single point]"
9,Cc1cccc(-n2ncc(C(=O)Nc3ccc4c(c3)OCO4)c2C2CCN(C(=O)OC(C)(C)C)CC2)c1,inactive
10,O=C(O)c1ccc(NC(=O)c2cn(-c3ccccc3)nc2-c2ccccc2)cc1,"inconclusive: 8.2 µM [activator, partial curve, poor fit]"
11,Cc1ccc(S(=O)(=O)N(C)Cc2ccccc2)cc1C(=O)N1CCCCC1,"inconclusive: 29.1 µM [falling, single point]"
12,CCOc1ccc(OCc2ccc(C(=O)N3CCOCC3)cc2)cc1,"inconclusive: 0.206 µM [activator, full curve, poor fit]"
13,Cc1ccc(S(=O)(=O)N2CCC(C(=O)Nc3ccncc3)CC2)cc1,"inconclusive: 20.6 µM [falling, partial curve]"
14,C/C(=N\NC(=O)c1ccc(Br)cc1)c1ccccc1,"inconclusive: 1.46 µM [activator, full curve]"
15,Oc1ccc(NCc2ccccc2OCc2ccccc2Cl)cc1,inactive
16,O=C(CSc1nnc(C2CC2)n1Cc1ccccc1)c1cc2ccccc2o1,"inconclusive: 29.1 µM [falling, single point]"
17,CCOC(=O)c1oc2ccccc2c1NC(=O)c1cccc(OC)c1,"inconclusive: 1.3 µM [falling, full curve]"
18,Cc1ccc(NC(=O)Cn2cnc3c(oc4ccccc43)c2=O)cc1,"inconclusive: 20.6 µM [falling, single point]"
19,COc1ccc(C(=O)NCc2nnc(SCC(=O)Nc3ccc(F)cc3)n2-c2ccccc2)cc1,"inconclusive: 1.64 µM [falling, full curve]"
20,Cc1ccc(C(=O)OCn2ncc(Cl)c(Cl)c2=O)cc1,"inconclusive: 29.1 µM [falling, single point]"
21,COc1cccc(NC(=O)C2Cc3ccccc3CN2C(=O)c2ccco2)c1 (configuration not stated),"inconclusive: 18.4 µM [activator, single point]"
22,O=S(=O)(c1ccc(F)cc1)N1CCn2c(nc3ccccc32)C1,inactive
23,Cc1[nH]n(-c2ccccc2)c(=O)c1/C=N/N(C)c1ccccc1,"inconclusive: 20.6 µM [falling, partial curve, poor fit]"

row,Structure (SMILES),Potency
1,COc1ccc(N2CCN(C(=O)CCNC(=O)c3ccc(C(C)(C)C)cc3)CC2)cc1,"inconclusive: 29.1 µM [falling, single point]"
2,COc1ccc2c(c1)Cc1sc(NC(=O)c3ccc(Cl)cc3)nc1-2,"inconclusive: 20.6 µM [falling, single point]"
3,C#CC1(O)CC(C)N(C)C(C)C1 (configuration not stated),"inconclusive: 3.66 µM [falling, single point]"
4,C=CCN1c2ccc(Br)cc2C(=O)CS1(=O)=O,inactive
5,CC1CCN(CC(=O)Nc2ccc(Br)cc2[N+](=O)[O-])CC1,"inconclusive: 11.6 µM [activator, partial curve]"
6,CCN(CC)S(=O)(=O)c1ccc(/C=C/C(=O)Nc2ccc(F)cc2F)cc1,"inconclusive: 20.6 µM [falling, single point]"
7,COc1ccc(Oc2ccc(/C=C/C(=O)c3ccc(O)cc3)cc2[N+](=O)[O-])cc1,inactive
8,O=C(Oc1nsnc1N1CCCCC1)N1CCOCC1,inactive
9,Cc1cc(C(=O)COc2ccc(F)cc2Br)c(C)n1C1CC1,"inconclusive: 32.6 µM [falling, single point]"
10,O=C(CSc1ccc(Cl)cc1)NC1CCCC1,"inconclusive: 29.1 µM [activator, single point]"
11,CCOc1ccc(-c2c(C(=O)N/N=C/C3CC=CCC3)nnn2-c2nonc2N)cc1 (configuration not stated),inactive
12,CCN(CC)S(=O)(=O)c1ccc(C(=O)O)cc1,inactive
13,COc1ccc(-c2cc(CNC(=O)CCl)on2)cc1,"inconclusive: 18.4 µM [falling, single point]"
14,COc1ccccc1NC(=O)c1ccc(NC(=O)c2cc3c(s2)CCC3)cc1,active: 23.1 µM
15,O=C1S/C(=C\c2ccc(N3CCOCC3)o2)C(=O)N1Cc1c(F)cccc1Cl,inactive
16,Cc1cc(C)c2nc(NNC(=O)c3ccc(S(=O)(=O)N4CCc5ccccc5C4)cc3)sc2c1,"inconclusive: 4.61 µM [falling, partial curve, poor fit]"
17,N#Cc1ccccc1CSc1nnc(-c2ccncc2)o1,"inconclusive: 25.9 µM [activator, single point]"
18,CCC(C)(C)NC(=S)Nc1ccc(-c2nc3ccc(C)cc3s2)cc1,"inconclusive: 0.326 µM [activator, full curve, poor fit]"
19,Cc1nnc(N2CCN(c3ccccc3)CC2)[nH]c1=O,"inconclusive: 29.1 µM [activator, single point]"
20,O=C(Nc1ccc(C(F)(F)F)cc1)C1=NN(C2CCS(=O)(=O)C2)C(=O)CC1 (configuration not stated),inactive
21,COc1ccc(C2Nc3ccccc3C(=O)N2Cc2ccccc2)cc1COc1ccc([N+](=O)[O-])cc1 (configuration not stated),inactive
22,Clc1ccc(CN(CCCNc2ncnc(NCCCc3cnc[nH]3)n2)c2ccc(Br)cn2)cc1Cl,"inconclusive: 13 µM [falling, partial curve, poor fit]"
23,Cc1ccc2nc(-c3ccc(NC(=O)C4CCCO4)cc3)[nH]c2c1 (configuration not stated),"inconclusive: 29.1 µM [falling, single point]"

# Three entries from above, ordered by SMILES length, falling.
row,Structure (SMILES),Potency
21,COc1cccc(NC(=O)C2Cc3ccccc3CN2C(=O)c2ccco2)c1 (configuration not stated),"inconclusive: 18.4 µM [activator, single point]"
9,Cc1cc(C(=O)COc2ccc(F)cc2Br)c(C)n1C1CC1,"inconclusive: 32.6 µM [falling, single point]"
8,O=C(Oc1nsnc1N1CCCCC1)N1CCOCC1,inactive

# Reprinted at random: 2 entries already listed, in no set order.
row,Structure (SMILES),Potency
16,Cc1cc(C)c2nc(NNC(=O)c3ccc(S(=O)(=O)N4CCc5ccccc5C4)cc3)sc2c1,"inconclusive: 4.61 µM [falling, partial curve, poor fit]"
19,Cc1nnc(N2CCN(c3ccccc3)CC2)[nH]c1=O,"inconclusive: 29.1 µM [activator, single point]"

# (list continues)

row,Structure (SMILES),Potency
1,CCOC(=O)CCc1c(C)nc(SCc2ccc(C(=O)O)cc2)c(C#N)c1C,"inconclusive: 5.17 µM [falling, full curve, poor fit]"
2,C[C@H](CO)N1C[C@H](C)[C@@H](CN(C)S(=O)(=O)c2ccccc2)Oc2c(NC(=O)Nc3ccc(C(F)(F)F)cc3)cccc2C1=O,"inconclusive: 29.1 µM [falling, single point]"
3,Cc1cc(C)cc(NC(=O)CSc2nnc(CNC(=O)c3c(F)cccc3Cl)o2)c1,"inconclusive: 5.8 µM [activator, full curve]"
4,COc1ccc(C(Nc2ccccn2)c2c(NC(=O)c3ccco3)sc(C)c2C)cc1 (configuration not stated),"inconclusive: 6.51 µM [falling, full curve]"
5,Cn1c(-c2ccc3nc(N)sc3c2)nc2cc(N)ccc21,inactive
6,CCN(CC)S(=O)(=O)c1ccc2c(c1)N(CC(=O)Nc1c(C)cc(C)cc1C)C(=O)CS2,inactive
7,O=C(NC(=O)c1ccc(F)cc1)Nc1nc(-c2cccs2)cc(C(F)(F)F)n1,"inconclusive: 14.6 µM [falling, partial curve]"
8,COc1ccc([C@H]2CC(=O)C=C(c3ccc(OC(F)(F)F)cc3)C2)cc1,"inconclusive: 5.8 µM [activator, partial curve]"
9,Cc1ccc2nc(SCC(=O)NC3CCCc4ccccc43)[nH]c2c1 (configuration not stated),"inconclusive: 32.6 µM [falling, single point]"
10,N#C/C(=C/c1ccc(N2CCCCCC2)o1)c1ccc(F)cc1,"inconclusive: 18.4 µM [activator, partial curve, poor fit]"
11,COc1cccc(-c2nc(N3CCN(C)CC3)c3ccccc3n2)c1O,"inconclusive: 1.3 µM [activator, partial curve, poor fit]"
12,CCS(=O)(=O)N1Cc2ccccc2CC1C(=O)N1CCN(c2cccc(C)c2C)CC1 (configuration not stated),"inconclusive: 20.6 µM [falling, single point]"
13,CC(C)c1ccc(-c2noc(SCC(=O)N(C)c3ccc(F)cc3)n2)cc1,"inconclusive: 0.651 µM [falling, partial curve, poor fit]"
14,Cc1ccccc1-c1noc(-c2ccc(N3CCCC3)c([N+](=O)[O-])c2)n1,"inconclusive: 11.6 µM [activator, partial curve]"
15,Cn1c(N)c(C(=O)COC(=O)C2(c3cccc(F)c3)CCCC2)c(=O)n(C)c1=O,"inconclusive: 20.6 µM [falling, single point]"
16,O=C(C[n+]1ccc(C(=O)NCc2ccccc2)cc1)c1ccc2c(c1)OCCO2,inactive
17,Cc1ccc(S(=O)(=O)N2C[C@@H]3[C@H]4CC[C@H](C4)[C@@H]3[C@@H](C)[C@@H]2c2cn(Cc3ccccc3)c3ncccc23)cc1,active: 20.6 µM
18,CCOc1ccc(N(C(=O)c2ccc(OC)cc2)S(=O)(=O)c2ccc3c(c2)n(C)c(=O)n3C)cc1,inactive
19,Nc1[nH]n(-c2ccccc2)c(=O)c1N=Nc1ccccc1[N+](=O)[O-],inactive
20,COc1ccccc1COc1ccc2c(C)c(CCC(=O)O)c(=O)oc2c1C,"inconclusive: 23.1 µM [falling, single point]"
21,O=C(Oc1ccccc1OC(=O)N1CCOCC1)N1CCOCC1,"inconclusive: 7.31 µM [falling, single point]"
